The list shows a part of the results.
Columns and labels:
Assay in all cases: log2 fold change, soluble protein after heating vs DMSO (PISA); higher = thermal stabilisation; K562 cells, 10 uM, 30 min; active = over 0.2 and 3.5 SD of the protein, either way, in both replicates (recomputed)
[1] = compound: CC1=CC=C(C=C1)SC2=C3C=C(SC3=CN=C2)C(=O)N
Outline: (§1)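 Values are thermal stability changes relative to control samples and are taken from duplicates. They are stated as log2 fold changes. Before quantification by TMTpro 16plex LC-MS/MS with equalised channel sums, K562 cells at 2×10^6 cells/mL were treated with 10 μM compound for 30 min, heated in aliquots for 3 min across 48°C-58°C, pooled, extracted in PBS with 0.5% NP-40 at 4°C, and centrifuged at 21,000xg for 90 min to give the soluble supernatant.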

Chains of the proteins cited; added tags and fusions are not shown. Lines headed by an entry give the natural chain unless they say otherwise; changes in a name come on top.
UniProt Q96N21: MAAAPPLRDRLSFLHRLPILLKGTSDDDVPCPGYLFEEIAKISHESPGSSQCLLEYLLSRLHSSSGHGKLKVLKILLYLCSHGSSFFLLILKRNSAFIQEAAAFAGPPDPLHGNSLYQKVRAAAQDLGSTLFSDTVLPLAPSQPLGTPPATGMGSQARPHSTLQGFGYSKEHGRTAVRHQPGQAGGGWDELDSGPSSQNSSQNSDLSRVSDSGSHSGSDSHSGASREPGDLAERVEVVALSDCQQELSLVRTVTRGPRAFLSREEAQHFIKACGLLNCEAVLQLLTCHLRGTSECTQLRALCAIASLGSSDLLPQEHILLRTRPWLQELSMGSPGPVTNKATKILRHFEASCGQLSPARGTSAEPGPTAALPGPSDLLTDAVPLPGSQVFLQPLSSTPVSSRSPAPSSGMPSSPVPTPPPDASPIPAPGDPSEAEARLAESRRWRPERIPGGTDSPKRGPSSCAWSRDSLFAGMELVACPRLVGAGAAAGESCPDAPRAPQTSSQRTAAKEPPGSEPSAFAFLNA
UniProt Q9UPU7: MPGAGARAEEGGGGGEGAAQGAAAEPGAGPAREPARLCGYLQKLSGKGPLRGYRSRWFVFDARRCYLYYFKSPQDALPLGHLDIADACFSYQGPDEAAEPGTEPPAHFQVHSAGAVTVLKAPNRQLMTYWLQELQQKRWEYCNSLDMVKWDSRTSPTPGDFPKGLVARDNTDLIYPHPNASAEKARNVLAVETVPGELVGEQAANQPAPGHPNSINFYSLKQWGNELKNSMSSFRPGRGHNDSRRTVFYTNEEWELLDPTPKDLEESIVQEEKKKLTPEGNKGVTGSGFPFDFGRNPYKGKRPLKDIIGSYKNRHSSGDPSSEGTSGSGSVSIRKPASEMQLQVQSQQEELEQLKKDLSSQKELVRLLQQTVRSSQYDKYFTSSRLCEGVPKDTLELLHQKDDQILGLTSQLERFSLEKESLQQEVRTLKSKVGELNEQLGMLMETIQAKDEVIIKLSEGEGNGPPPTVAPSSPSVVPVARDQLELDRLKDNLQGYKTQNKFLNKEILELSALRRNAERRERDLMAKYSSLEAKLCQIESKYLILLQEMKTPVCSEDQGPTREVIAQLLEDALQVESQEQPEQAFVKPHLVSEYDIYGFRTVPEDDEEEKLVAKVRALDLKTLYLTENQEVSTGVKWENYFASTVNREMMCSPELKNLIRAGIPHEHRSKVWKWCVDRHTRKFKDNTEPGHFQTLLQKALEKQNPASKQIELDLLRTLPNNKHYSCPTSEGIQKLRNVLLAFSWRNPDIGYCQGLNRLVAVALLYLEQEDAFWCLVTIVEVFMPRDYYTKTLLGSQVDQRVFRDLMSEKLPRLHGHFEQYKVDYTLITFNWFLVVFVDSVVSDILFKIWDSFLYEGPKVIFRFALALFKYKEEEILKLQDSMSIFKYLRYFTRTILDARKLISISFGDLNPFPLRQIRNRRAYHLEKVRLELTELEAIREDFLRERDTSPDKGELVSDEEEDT
UniProt Q9NQ88: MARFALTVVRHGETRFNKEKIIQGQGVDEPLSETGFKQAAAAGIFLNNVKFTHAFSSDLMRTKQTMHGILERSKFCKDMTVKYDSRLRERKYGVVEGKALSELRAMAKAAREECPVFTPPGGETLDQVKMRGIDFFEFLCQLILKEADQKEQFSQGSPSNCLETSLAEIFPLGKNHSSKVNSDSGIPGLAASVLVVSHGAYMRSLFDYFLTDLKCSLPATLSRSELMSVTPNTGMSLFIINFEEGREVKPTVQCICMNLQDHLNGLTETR
UniProt Q5TEJ8: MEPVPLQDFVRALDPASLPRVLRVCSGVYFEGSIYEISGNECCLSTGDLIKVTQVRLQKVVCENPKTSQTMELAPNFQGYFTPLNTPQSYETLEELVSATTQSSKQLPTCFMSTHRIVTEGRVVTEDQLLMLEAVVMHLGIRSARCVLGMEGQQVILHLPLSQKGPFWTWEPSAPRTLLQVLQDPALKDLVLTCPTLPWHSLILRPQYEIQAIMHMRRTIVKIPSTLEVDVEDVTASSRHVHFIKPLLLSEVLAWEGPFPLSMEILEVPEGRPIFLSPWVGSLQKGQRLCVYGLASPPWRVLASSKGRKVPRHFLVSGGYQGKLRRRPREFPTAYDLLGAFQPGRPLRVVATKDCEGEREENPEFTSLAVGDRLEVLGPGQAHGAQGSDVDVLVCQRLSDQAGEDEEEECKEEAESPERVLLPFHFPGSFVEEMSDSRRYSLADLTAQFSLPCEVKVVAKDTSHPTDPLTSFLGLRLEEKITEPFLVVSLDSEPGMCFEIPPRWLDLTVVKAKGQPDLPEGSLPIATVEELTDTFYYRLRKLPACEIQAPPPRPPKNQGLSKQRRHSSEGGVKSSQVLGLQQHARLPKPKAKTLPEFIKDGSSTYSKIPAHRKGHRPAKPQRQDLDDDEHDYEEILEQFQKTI
UniProt Q96EI5: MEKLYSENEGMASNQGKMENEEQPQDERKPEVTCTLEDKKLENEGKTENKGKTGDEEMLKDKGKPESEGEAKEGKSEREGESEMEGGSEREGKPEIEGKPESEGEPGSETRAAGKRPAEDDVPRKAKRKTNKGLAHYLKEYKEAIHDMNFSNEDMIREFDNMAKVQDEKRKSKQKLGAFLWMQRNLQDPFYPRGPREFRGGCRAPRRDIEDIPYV
UniProt Q01664: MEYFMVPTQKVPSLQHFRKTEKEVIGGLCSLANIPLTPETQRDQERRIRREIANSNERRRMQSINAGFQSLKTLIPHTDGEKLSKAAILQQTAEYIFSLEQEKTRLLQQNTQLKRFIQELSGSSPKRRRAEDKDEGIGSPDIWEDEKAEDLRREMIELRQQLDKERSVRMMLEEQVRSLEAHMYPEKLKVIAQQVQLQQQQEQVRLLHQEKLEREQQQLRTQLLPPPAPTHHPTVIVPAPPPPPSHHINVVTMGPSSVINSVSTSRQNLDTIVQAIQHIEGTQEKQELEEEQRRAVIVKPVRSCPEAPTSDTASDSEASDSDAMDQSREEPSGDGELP
UniProt P15884: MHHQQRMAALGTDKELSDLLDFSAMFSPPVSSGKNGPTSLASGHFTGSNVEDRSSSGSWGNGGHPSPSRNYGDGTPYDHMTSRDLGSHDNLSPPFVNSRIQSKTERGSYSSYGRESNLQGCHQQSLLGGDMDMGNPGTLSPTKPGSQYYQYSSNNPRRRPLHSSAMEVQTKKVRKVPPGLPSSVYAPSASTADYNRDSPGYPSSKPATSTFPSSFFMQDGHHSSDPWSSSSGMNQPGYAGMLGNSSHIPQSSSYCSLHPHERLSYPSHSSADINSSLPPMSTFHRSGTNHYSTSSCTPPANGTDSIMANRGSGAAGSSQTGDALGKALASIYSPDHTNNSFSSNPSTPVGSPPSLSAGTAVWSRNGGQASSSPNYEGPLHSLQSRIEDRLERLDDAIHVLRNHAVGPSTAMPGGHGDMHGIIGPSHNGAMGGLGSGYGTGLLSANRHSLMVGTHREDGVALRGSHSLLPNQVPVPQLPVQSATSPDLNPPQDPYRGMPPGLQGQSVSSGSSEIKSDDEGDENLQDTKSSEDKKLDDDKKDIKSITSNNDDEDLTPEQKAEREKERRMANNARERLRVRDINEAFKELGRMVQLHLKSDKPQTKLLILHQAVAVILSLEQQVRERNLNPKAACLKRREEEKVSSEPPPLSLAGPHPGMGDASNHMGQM
UniProt Q9NUW8, whole entry, looked up: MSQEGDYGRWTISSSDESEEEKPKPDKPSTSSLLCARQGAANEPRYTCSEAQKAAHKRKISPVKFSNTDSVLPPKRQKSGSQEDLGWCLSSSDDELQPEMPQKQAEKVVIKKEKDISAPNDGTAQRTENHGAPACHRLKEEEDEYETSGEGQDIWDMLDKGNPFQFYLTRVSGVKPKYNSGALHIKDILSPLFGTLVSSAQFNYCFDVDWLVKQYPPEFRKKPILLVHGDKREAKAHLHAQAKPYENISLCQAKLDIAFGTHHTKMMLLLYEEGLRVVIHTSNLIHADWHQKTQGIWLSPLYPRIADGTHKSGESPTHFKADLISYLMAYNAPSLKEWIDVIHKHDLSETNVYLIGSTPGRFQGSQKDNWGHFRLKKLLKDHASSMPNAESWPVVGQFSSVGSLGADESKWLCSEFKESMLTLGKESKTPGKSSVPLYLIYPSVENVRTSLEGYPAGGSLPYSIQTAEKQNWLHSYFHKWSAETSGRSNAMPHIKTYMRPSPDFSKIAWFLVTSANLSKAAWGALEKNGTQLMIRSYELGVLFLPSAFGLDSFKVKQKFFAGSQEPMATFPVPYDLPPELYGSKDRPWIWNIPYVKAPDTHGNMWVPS
UniProt Q8TBR7: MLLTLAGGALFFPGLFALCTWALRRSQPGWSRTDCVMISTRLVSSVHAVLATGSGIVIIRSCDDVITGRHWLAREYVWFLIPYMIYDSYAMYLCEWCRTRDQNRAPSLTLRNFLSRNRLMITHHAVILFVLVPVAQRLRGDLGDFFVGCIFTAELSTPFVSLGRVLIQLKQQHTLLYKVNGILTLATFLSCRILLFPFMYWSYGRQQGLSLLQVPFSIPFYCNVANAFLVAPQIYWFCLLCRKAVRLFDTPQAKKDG
UniProt Q9UHQ7: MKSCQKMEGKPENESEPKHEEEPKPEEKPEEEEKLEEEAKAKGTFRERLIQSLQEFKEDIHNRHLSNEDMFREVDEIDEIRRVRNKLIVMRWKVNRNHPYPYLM

Nexturastat A = compound: CCCCN(Cc1ccc(C(=O)NO)cc1)C(=O)Nc1ccccc1 [Nexturastat A]
Outline: as §1

vemurafenib = compound: CCCS(=O)(=O)Nc1ccc(F)c(C(=O)c2c[nH]c3ncc(-c4ccc(Cl)cc4)cc23)c1F [vemurafenib]
Outline: as §1

[2] = compound: CCCS(=O)(=O)Nc1ccc(F)c(C(=O)c2c[nH]c3ncc(Cl)cc23)c1F
Outline: as §1

[3] = compound: CCCc1cc(C)[nH]c(=O)c1CNC(=O)c1cc(-c2ccnc(N3CCN(C)CC3)c2)cc2c1cnn2C(C)C
Outline: as §1

barasertib = compound: CCN(CCCOc1ccc2c(Nc3cc(CC(=O)Nc4cccc(F)c4)[nH]n3)ncnc2c1)CCOP(=O)(O)O [barasertib]
Outline: as §1

[4] = compound: CC1=C(C=C(C=C1)NC(=O)C2=CC(=CC=C2)N(C)C)NC(=O)C3=CC=C(C=C3)O
Outline: as §1

[5] = compound: CC1=NC(=CC=C1)C2=C(N=C(N2)C(C)(C)C)C3=CC4=NC=CN=C4C=C3
Outline: as §1

givinostat = compound: CCN(CC)Cc1ccc2cc(COC(=O)Nc3ccc(C(=O)NO)cc3)ccc2c1 [givinostat]
Outline: as §1

[6] = compound: CC1=C(C=C(C=C1)NC(=O)C2=CC(=CC=C2)C(C)(C)C#N)NC3=CC4=C(C=C3)N=CN(C4=O)C
Outline: as §1

Measured: log2 fold change

TDRD3 isoform 3 (UniProt Q9H7E2)
inactive: [1] -0.16 | Nexturastat A 0.127 | vemurafenib -0.017 | [2] -0.04 | [3] 0.057 | barasertib -0.156

TCF3 isoform 2 (UniProt P15923)
inactive: [4] -0.094 | [5] -0.046 | vemurafenib -0.129

TBC1D25 (UniProt Q3MII6)
inactive: vemurafenib -0.054 | givinostat 0.036 | barasertib 0.42

TCIRG1 (UniProt Q13488)
inactive: [4] -0.055 | [5] -0.052 | Nexturastat A 0.287 | givinostat 0.03 | barasertib 0.005

TEPSIN (UniProt Q96N21)
inactive: [5] -0.169

TBC1D2B (UniProt Q9UPU7)
inactive: [6] -0.035 | [5] -0.123 | [3] 0.017 | barasertib 0.071

TBC1D7 (UniProt Q9P0N9)
inactive: [6] 0.334 | [1] 0.036 | Nexturastat A 0.018 | [2] 0.132 | givinostat 0.249 | barasertib 0.037

TCTN3 (UniProt Q6NUS6)
inactive: [6] -0.054 | [1] -0.029 | [5] 0.056 | Nexturastat A 0.028 | [2] 0.028 | barasertib -0.224

TCEAL8 (UniProt Q8IYN2)
inactive: [5] 0.101 | [3] -0.065 | givinostat 0.057

TFDP2 (UniProt Q14188)
inactive: [6] -0.081 | Nexturastat A 0.088 | [3] 0.088 | barasertib -0.047

TBC1D2 (UniProt Q9BYX2)
active: Nexturastat A 0.618
inactive: [3] 0.11

TEX30 (UniProt Q5JUR7)
inactive: [4] -0.182 | [1] 0.047 | [5] -0.062 | Nexturastat A 0.009 | vemurafenib 0.138 | [2] 0.037 | [3] -0.119 | givinostat -0.146 | barasertib 0.019

TIGAR (UniProt Q9NQ88)
inactive: barasertib -0.257

THEMIS2 (UniProt Q5TEJ8)
inactive: [4] 0.123 | [1] -0.008 | [5] -0.079 | Nexturastat A -0.116 | [2] -0.045

THTPA (UniProt Q9BU02)
inactive: [4] -0.031 | [1] -0.053 | vemurafenib 0.047 | [2] 0.052 | [3] -0.167 | givinostat -0.061 | barasertib 0.203

TCP11L1 (UniProt Q9NUJ3)
inactive: [1] 0.241 | [2] 0.026 | [3] -0.066 | givinostat 0.355

TBCK (UniProt Q8TEA7)
inactive: [1] -0.077 | [5] -0.106 | [2] 0.19 | givinostat 0.058

TCEAL4 isoform 2 (UniProt Q96EI5)
inactive: [4] -0.181 | [1] 0.076 | [5] 0.046 | Nexturastat A 0.012 | vemurafenib 0.062 | [2] -0.045 | givinostat 0.04

THAP9 (UniProt Q9H5L6)
inactive: [4] 0.017 | [5] -0.065 | [3] -0.463 | barasertib 0.121

TBC1D9 (UniProt Q6ZT07)
inactive: vemurafenib 0.607 | givinostat -0.028 | barasertib -0.004

TIFA (UniProt Q96CG3)
inactive: [6] -0.091 | [1] -0.075 | [5] -0.196 | Nexturastat A 0.001 | vemurafenib -0.21 | [2] -0.011 | givinostat -0.06

TENM4 (UniProt Q6N022)
inactive: [1] -0.028 | [5] 0.048 | Nexturastat A -0.156 | [2] -0.042

TFAP4 (UniProt Q01664)
inactive: [4] -0.036 | [1] 0.198 | [5] 0.117 | vemurafenib -0.12 | [2] -0.08 | barasertib 0.006

THAP12 (UniProt O43422)
inactive: [4] -0.126 | [5] 0.108 | givinostat -0.079

TCF25 (UniProt Q9BQ70)
inactive: [4] -0.122 | [1] -0.007 | [5] -0.079 | Nexturastat A 0.14 | vemurafenib 0.108 | [2] -0.023 | [3] -0.008

TCF4 isoform 3 (UniProt P15884)
inactive: [1] 0.058 | [2] -0.195

TCF20 (UniProt Q9UGU0)
inactive: [4] 0.266 | Nexturastat A 0.134 | barasertib 0.121

TET2 (UniProt Q6N021)
inactive: [5] -0.074 | [3] -0.193

Looked up one by one from the entries so far, two records:
THAP12 (UniProt O43422)
inactive: [4] -0.126 | [5] 0.108 | givinostat -0.079

TCF20 (UniProt Q9UGU0)
inactive: [4] 0.266 | Nexturastat A 0.134 | barasertib 0.121

Next records

TEX10 (UniProt Q9NXF1)
inactive: [6] -0.055 | givinostat -0.128 | barasertib 0.15

TLE3 (UniProt Q04726)
inactive: barasertib 0.29

TDP1 (UniProt Q9NUW8)
inactive: givinostat 0.112

TBP (UniProt P20226)
inactive: [4] -0.04 | [1] -0.056 | [5] -0.071 | Nexturastat A 0.163 | vemurafenib 0.02 | [2] -0.026 | [3] -0.154 | barasertib -0.067

TLCD3A (UniProt Q8TBR7)
inactive: [6] -0.058 | [1] 0.003 | vemurafenib 0.009 | [2] 0.004

TGDS (UniProt O95455)
inactive: [6] -0.06 | vemurafenib -0.098 | [3] -0.059 | givinostat -0.164

TBX1 isoform 3 (UniProt O43435)
inactive: [1] -0.355 | [5] -0.063 | [2] -0.121

TDRD7 (UniProt Q8NHU6)
inactive: [4] -0.048 | [5] 0.035 | Nexturastat A -0.463 | vemurafenib -0.01 | [3] -0.255 | givinostat -0.023

TCEAL9 (UniProt Q9UHQ7)
inactive: [6] -0.216 | Nexturastat A 0.576
